Measurements reported in PubChem BioAssay AID1224830 (NIAID, 2016).
Shown is a random part of about 18,000 reagents tested. Of all reagents, about 2,900 (16%) are marked active. 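Calls are made per well; low scores hint the gene aids the LPS response, high scores that it dampens it.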 Repeated entries: four replicate wells of each siRNA pool.

Test: 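Host factors that control LPS-induced TNF expression in human macrophages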 (primary screen)
System: human THP-1 monocytic leukaemia cells, TNF dual-luciferase reporter clone, PMA-differentiated to macrophage-like cells
Reagents: siRNA pool against human genes, 50 nM
Time to read-out: LPS for 4 h, given about 3 days after siRNA transfection
Treatment: bacterial LPS (TLR4 ligand), 10 ng/ml
Measured: 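TNF firefly reporter luminescence divided by renilla, normalised to the plate median, then turned into a robust z-score for each replicate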
Reading the numbers: TNF reporter robust z-score: higher = stronger TNF reporter response to LPS
Call rule: 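Each well counts as active if its z-score is over 2.8 or under -1.5; controls are left without a call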

target gene	TNF reporter robust z-score	Call
TIMP1 (GeneID 7076)	0.57	inactive
TIMP1 (GeneID 7076)	2.37	inactive
TIMP1 (GeneID 7076)	1.9	inactive
TIMP1 (GeneID 7076)	1.13	inactive
LIMA1 (GeneID 51474)	0.4	inactive
LIMA1 (GeneID 51474)	1.9	inactive
LIMA1 (GeneID 51474)	0.29	inactive
LIMA1 (GeneID 51474)	1.86	inactive
DNASE2B (GeneID 58511)	1.37	inactive
DNASE2B (GeneID 58511)	0.68	inactive
DNASE2B (GeneID 58511)	0.39	inactive
DNASE2B (GeneID 58511)	-0.06	inactive
CDK2 (GeneID 1017)	0.21	inactive
CDK2 (GeneID 1017)	1.96	inactive
CDK2 (GeneID 1017)	0.34	inactive
CDK2 (GeneID 1017)	1.08	inactive
CEND1 (GeneID 51286)	0.54	inactive
CEND1 (GeneID 51286)	0.18	inactive
CEND1 (GeneID 51286)	1.43	inactive
CEND1 (GeneID 51286)	0.39	inactive
DENND1A (GeneID 57706)	-0.53	inactive
DENND1A (GeneID 57706)	-0.22	inactive
DENND1A (GeneID 57706)	-0.29	inactive
DENND1A (GeneID 57706)	-0.42	inactive
GPM6B (GeneID 2824)	-1.46	inactive
GPM6B (GeneID 2824)	-0.78	inactive
GPM6B (GeneID 2824)	-0.39	inactive
GPM6B (GeneID 2824)	-0.86	inactive
YBEY (GeneID 54059)	-1.06	inactive
YBEY (GeneID 54059)	0.1	inactive
YBEY (GeneID 54059)	-0.21	inactive
YBEY (GeneID 54059)	-0.65	inactive
TBX3 (GeneID 6926)	-0.8	inactive
TBX3 (GeneID 6926)	-0.33	inactive
TBX3 (GeneID 6926)	-0.91	inactive
TBX3 (GeneID 6926)	0.63	inactive
FOXO4 (GeneID 4303)	-0.62	inactive
FOXO4 (GeneID 4303)	0.67	inactive
FOXO4 (GeneID 4303)	-0.69	inactive
FOXO4 (GeneID 4303)	1.01	inactive
KRCC1 (GeneID 51315)	-0.77	inactive
KRCC1 (GeneID 51315)	0.14	inactive
KRCC1 (GeneID 51315)	-0.64	inactive
KRCC1 (GeneID 51315)	-0.07	inactive
IFITM2 (GeneID 10581)	0.96	inactive
IFITM2 (GeneID 10581)	-0.2	inactive
IFITM2 (GeneID 10581)	0.45	inactive
IFITM2 (GeneID 10581)	1.36	inactive
LDLRAD3 (GeneID 143458)	-0.29	inactive
LDLRAD3 (GeneID 143458)	-0.17	inactive
LDLRAD3 (GeneID 143458)	-1.27	inactive
LDLRAD3 (GeneID 143458)	-0.11	inactive
TEF (GeneID 7008)	-1.4	inactive
TEF (GeneID 7008)	-1	inactive
TEF (GeneID 7008)	-1.68	active
TEF (GeneID 7008)	-0.68	inactive
SCARF2 (GeneID 91179)	1.02	inactive
SCARF2 (GeneID 91179)	3.72	active
SCARF2 (GeneID 91179)	1.91	inactive
SCARF2 (GeneID 91179)	0.44	inactive
ENTR1 (GeneID 10807)	1.07	inactive
ENTR1 (GeneID 10807)	1.43	inactive
ENTR1 (GeneID 10807)	1.11	inactive
ENTR1 (GeneID 10807)	2.01	inactive
BARX2 (GeneID 8538)	-0.48	inactive
BARX2 (GeneID 8538)	-0.7	inactive
BARX2 (GeneID 8538)	0.41	inactive
BARX2 (GeneID 8538)	0.71	inactive
LTO1 (GeneID 220064)	1.05	inactive
LTO1 (GeneID 220064)	0.26	inactive
LTO1 (GeneID 220064)	-0.3	inactive
LTO1 (GeneID 220064)	-0.07	inactive
TPH2 (GeneID 121278)	-0.51	inactive
TPH2 (GeneID 121278)	-0.62	inactive
TPH2 (GeneID 121278)	-0.23	inactive
TPH2 (GeneID 121278)	0.24	inactive
AASDH (GeneID 132949)	-0.37	inactive
AASDH (GeneID 132949)	0.03	inactive
AASDH (GeneID 132949)	0.13	inactive
AASDH (GeneID 132949)	-0.21	inactive
PCDHA1 (GeneID 56147)	-0.93	inactive
PCDHA1 (GeneID 56147)	-0.32	inactive
PCDHA1 (GeneID 56147)	-0.87	inactive
RPS16 (GeneID 6217)	-0.36	inactive
RPS16 (GeneID 6217)	-0.61	inactive
RPS16 (GeneID 6217)	-0.33	inactive
RPS16 (GeneID 6217)	-0.55	inactive
OR5AK2 (GeneID 390181)	0.58	inactive
OR5AK2 (GeneID 390181)	0.75	inactive
OR5AK2 (GeneID 390181)	-1.06	inactive
OR5AK2 (GeneID 390181)	0.43	inactive
CIZ1 (GeneID 25792)	0.2	inactive
CIZ1 (GeneID 25792)	1.17	inactive
CIZ1 (GeneID 25792)	1.01	inactive
CIZ1 (GeneID 25792)	1.54	inactive
ANKEF1 (GeneID 63926)	-0.36	inactive
ANKEF1 (GeneID 63926)	-0.15	inactive
ANKEF1 (GeneID 63926)	-0.39	inactive
ANKEF1 (GeneID 63926)	0.23	inactive
SENP7 (GeneID 57337)	-0.57	inactive
SENP7 (GeneID 57337)	-0.11	inactive
SENP7 (GeneID 57337)	-0.17	inactive
RNF222 (GeneID 643904)	0.8	inactive
RNF222 (GeneID 643904)	1.25	inactive
RNF222 (GeneID 643904)	0.16	inactive
RNF222 (GeneID 643904)	1.4	inactive
DNAJB8 (GeneID 165721)	-0.65	inactive
DNAJB8 (GeneID 165721)	0.15	inactive
DNAJB8 (GeneID 165721)	-0.1	inactive
BACH2 (GeneID 60468)	-1.38	inactive
BACH2 (GeneID 60468)	-0.8	inactive
BACH2 (GeneID 60468)	-0.76	inactive
BACH2 (GeneID 60468)	1.06	inactive
VSTM4 (GeneID 196740)	0.63	inactive
VSTM4 (GeneID 196740)	0.58	inactive
VSTM4 (GeneID 196740)	1.35	inactive
VSTM4 (GeneID 196740)	1.52	inactive
SNCG (GeneID 6623)	1.74	inactive
SNCG (GeneID 6623)	1.49	inactive
SNCG (GeneID 6623)	3.2	active
SNCG (GeneID 6623)	1.3	inactive
MYL4 (GeneID 4635)	0.1	inactive
MYL4 (GeneID 4635)	-0.86	inactive
MYL4 (GeneID 4635)	-0.16	inactive
MYL4 (GeneID 4635)	-0.28	inactive
CAMK2N1 (GeneID 55450)	0.24	inactive
CAMK2N1 (GeneID 55450)	-0.48	inactive
CAMK2N1 (GeneID 55450)	1.19	inactive
CAMK2N1 (GeneID 55450)	-0.27	inactive
GPC3 (GeneID 2719)	0.35	inactive
GPC3 (GeneID 2719)	0.34	inactive
GPC3 (GeneID 2719)	-0.02	inactive
GPC3 (GeneID 2719)	0.51	inactive
OPN5 (GeneID 221391)	0.84	inactive
OPN5 (GeneID 221391)	1.03	inactive
OPN5 (GeneID 221391)	0.99	inactive
OPN5 (GeneID 221391)	0.03	inactive
TMEM87A (GeneID 25963)	-1.51	active
TMEM87A (GeneID 25963)	-0.83	inactive
TMEM87A (GeneID 25963)	-1.32	inactive
TMEM87A (GeneID 25963)	-1.29	inactive

Quoted from the listing for reference:
target gene	TNF reporter robust z-score	Call
GPM6B (GeneID 2824)	-0.39	inactive
GPM6B (GeneID 2824)	-0.86	inactive
YBEY (GeneID 54059)	-1.06	inactive
YBEY (GeneID 54059)	0.1	inactive
YBEY (GeneID 54059)	-0.21	inactive
YBEY (GeneID 54059)	-0.65	inactive
TBX3 (GeneID 6926)	-0.8	inactive
TBX3 (GeneID 6926)	-0.33	inactive
TBX3 (GeneID 6926)	-0.91	inactive
TBX3 (GeneID 6926)	0.63	inactive
FOXO4 (GeneID 4303)	-0.62	inactive
FOXO4 (GeneID 4303)	0.67	inactive
FOXO4 (GeneID 4303)	-0.69	inactive
FOXO4 (GeneID 4303)	1.01	inactive
KRCC1 (GeneID 51315)	-0.77	inactive
